Experimental data: paper doi:10.1101/2024.07.16.603680
Results are given in words; binding and its absence hold for the method and conditions named. Binding seen in cells or lysates may run through a third protein. Some entries that bind do so weakly or less than the wild type.

Chains of the proteins cited; added tags and fusions are not shown.
UniProt P18583: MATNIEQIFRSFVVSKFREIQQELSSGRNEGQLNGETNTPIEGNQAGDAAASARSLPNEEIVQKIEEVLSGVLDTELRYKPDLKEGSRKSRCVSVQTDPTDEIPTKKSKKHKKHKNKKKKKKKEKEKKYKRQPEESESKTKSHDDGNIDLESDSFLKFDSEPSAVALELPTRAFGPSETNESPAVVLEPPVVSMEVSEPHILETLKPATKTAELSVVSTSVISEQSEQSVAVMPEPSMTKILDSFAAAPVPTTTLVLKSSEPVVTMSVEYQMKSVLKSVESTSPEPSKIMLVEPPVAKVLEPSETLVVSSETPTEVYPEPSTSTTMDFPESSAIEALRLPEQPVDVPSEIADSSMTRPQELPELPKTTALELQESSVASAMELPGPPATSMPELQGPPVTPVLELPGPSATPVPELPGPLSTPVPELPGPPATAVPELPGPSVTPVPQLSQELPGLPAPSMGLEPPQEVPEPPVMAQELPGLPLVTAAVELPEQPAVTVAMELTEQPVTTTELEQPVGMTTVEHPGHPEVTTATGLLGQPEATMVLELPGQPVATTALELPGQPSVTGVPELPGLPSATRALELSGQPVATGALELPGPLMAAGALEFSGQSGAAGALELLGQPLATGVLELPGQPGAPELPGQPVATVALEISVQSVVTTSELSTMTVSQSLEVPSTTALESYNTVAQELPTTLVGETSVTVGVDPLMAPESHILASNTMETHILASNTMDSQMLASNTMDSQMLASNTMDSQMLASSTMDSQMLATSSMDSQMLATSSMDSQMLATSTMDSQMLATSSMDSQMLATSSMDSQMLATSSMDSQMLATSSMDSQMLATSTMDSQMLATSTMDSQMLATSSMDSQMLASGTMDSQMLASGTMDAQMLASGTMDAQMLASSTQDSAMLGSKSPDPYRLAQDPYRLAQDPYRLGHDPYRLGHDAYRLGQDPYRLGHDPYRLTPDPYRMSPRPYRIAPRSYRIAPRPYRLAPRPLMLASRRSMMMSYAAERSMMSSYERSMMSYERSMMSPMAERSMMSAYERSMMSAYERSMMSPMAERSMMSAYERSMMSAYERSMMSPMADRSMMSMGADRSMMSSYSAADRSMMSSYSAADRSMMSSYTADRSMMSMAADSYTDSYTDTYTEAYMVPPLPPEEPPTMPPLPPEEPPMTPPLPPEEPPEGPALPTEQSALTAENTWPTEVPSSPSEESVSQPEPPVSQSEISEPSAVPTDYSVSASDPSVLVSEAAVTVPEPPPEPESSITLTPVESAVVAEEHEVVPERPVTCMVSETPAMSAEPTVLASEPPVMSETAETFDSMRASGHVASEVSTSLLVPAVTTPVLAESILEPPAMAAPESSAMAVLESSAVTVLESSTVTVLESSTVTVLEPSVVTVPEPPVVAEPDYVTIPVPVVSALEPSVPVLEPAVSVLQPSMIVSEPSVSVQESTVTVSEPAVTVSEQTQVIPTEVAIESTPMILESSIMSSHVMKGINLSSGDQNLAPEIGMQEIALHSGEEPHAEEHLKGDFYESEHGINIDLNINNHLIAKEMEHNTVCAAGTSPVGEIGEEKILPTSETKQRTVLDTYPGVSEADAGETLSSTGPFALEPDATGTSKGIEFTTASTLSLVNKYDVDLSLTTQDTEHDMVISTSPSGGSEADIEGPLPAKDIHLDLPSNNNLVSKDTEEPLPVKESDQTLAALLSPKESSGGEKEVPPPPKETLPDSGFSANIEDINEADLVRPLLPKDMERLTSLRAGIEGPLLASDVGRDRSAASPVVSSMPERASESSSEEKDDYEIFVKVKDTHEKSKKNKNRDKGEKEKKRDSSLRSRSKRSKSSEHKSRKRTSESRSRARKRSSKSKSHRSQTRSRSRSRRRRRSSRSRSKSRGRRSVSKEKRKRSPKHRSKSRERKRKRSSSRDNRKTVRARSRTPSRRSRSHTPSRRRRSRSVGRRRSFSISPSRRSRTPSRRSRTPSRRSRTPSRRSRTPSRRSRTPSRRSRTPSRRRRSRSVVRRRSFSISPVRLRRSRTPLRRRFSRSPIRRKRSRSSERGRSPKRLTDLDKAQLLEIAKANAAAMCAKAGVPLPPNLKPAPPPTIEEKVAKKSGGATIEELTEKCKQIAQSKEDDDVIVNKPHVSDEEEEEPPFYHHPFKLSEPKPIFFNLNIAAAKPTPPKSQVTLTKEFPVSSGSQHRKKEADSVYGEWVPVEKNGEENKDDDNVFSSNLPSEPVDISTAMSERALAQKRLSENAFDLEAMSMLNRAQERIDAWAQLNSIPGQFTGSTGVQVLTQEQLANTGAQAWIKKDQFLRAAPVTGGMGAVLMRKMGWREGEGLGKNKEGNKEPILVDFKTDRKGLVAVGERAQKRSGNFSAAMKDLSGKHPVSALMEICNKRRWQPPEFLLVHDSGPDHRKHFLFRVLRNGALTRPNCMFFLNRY

Substrate: SON (human (endogenous in IMR90)) (UniProt P18583)
Experiment: co-IP

binding: binds
B1: CCCTC-binding insulator (CTCF) (protein, UniProt P49711 1-727)
chain: MEGDAVEAIVEESETFIKGKERKTYQRRREGGQEEDACHLPQNQTDGGEVVQDVNSSVQMVMMEQLDPTLLQMKTEVMEGTVAPEAEAAVDDTQIITLQVVNMEEQPINIGELQLVQVPVPVTVPVATTSVEELQGAYENEVSKEGLAESEPMICHTLPLPEGFQVVKVGANGEVETLEQGELPPQEDPSWQKDPDYQPPAKKTKKTKKSKLRYTEEGKDVDVSVYDFEEEQQEGLLSEVNAEKVVGNMKPPKPTKIKKKGVKKTFQCELCSYTCPRRSNLDRHMKSHTDERPHKCHLCGRAFRTVTLLRNHLNTHTGTRPHKCPDCDMAFVTSGELVRHRRYKHTHEKPFKCSMCDYASVEVSKLKRHIRSHTGERPFQCSLCSYASRDTYKLKRHMRTHSGEKPYECYICHARFTQSGTMKMHILQKHTENVAKFHCPHCDTVIARKSDLGVHLRKQHSYIEQGKKCRYCDAVFHERYALIQHQKSHKNEKRFKCDQCDYACRQERHMIMHKRTHTGEKPYACSHCDKTFRQKQLLDMHFKRYHDPNFVPAAFVCSKCGKTFTRRNTMARHADNCAGPDGVEGENGGETKKSKRGRKRKMRSKKEDSSDSENAEPDLDDNEDEEEPAVEIEPEPEPQPVTPAPPPAKKRRGRPPGRTNQPKQNQPTAIIQVEDQNTGAIENIIVEVKKEPDAEPAEGEEEEAQPAATDAPNGDLTPEMILSMMDR
